Measurements reported in PubChem BioAssay AID652259 (Drosophila RNAi Screening Center, 2013)

- Screen: 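Identify new Wingless signalling regulators in fly cells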 (primary screen)
- Cell system: Drosophila clone 8 imaginal disc epithelial cells
- Reagents: long dsRNA against Drosophila genes
- Conditions: pathway stimulated by co-transfected Wingless expression plasmid
- Read-out: 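Dual luciferase reads per well after Wingless plasmid stimulation: reporter firefly light and Renilla control light; activity is firefly divided by Renilla, a ratio not deposited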
- Direction: firefly reporter light: higher = more Wg reporter light, before normalisation; Renilla control light: higher = more transfected or surviving cells
- Call rule: 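a knock-down is a candidate when at least two out of four statistical tests show it departing from its plate mean; one test alone signals a weak candidate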
- Meaning of the calls: active = candidate regulator (raises or lowers reporter); inactive = not a candidate
The screen tested about 22,000 reagents; below is an unselected part of those that have a named target and a result. Over the whole deposit, 233 (1.1%) are marked active. 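Light values are raw, unnormalised plate reads; the ratio scores behind the reporter calls were not deposited.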 Reagents against one gene are numbered here. A plus sign joins genes that one reagent is predicted to hit. Not stated in the record: the amount of reagent, the time to read-out, the dose of the treatment.

no.	predicted target	reagent	firefly reporter light, replicate 1	firefly reporter light, replicate 2	Renilla control light, replicate 1	Renilla control light, replicate 2	Outcome
1	CG7509	1	3938		2242		inactive
2	CG15717	1	26061		14034		inactive
3	CG43163	1	1622	10067	944	3426	inactive
4	Debcl	1	13729		4284		inactive
5	Obp51a	1	5.81e5	6.16e5	1.90e5	1.57e5	inactive
6	CG12546	1	14615		3962		inactive
7	ATPCL	1	8161		1962		inactive
8	CG30197	1	4.42e5	4.35e5	1.86e5	1.85e5	inactive
9	Fancm	1	3597	5398	1394	2442	inactive
10	mRpS9	1	3253		1508		inactive
11	mRpS9	2	17805		4347		inactive
12	Nep1	1	2844	8888	857	2240	inactive
13	Nep1	2	9052		2151		inactive
14	CG31275	1	15661		4100		inactive
15	AdamTS-A	1	2583		1719		inactive
16	AdamTS-A	2	16995		5532		inactive
17	FASN2	1	17363		9539		inactive
18	FASN2	2	11959		4115		inactive
19	lncRNA:CR31526	1	4.54e5	5.16e5	2.12e5	1.99e5	inactive
20	CG17994	1	3148	10077	1223	2816	inactive
21	CG10660	1	7301		2362		inactive
22	Semp1	1	3703	7482	1243	3408	inactive
23	bin	1	2176	5729	1637	2037	inactive
24	Su(z)12	1	14565		4983		inactive
25	CG11404	1	17492		5936		inactive
26	atlas	1	3062	8688	982	3696	inactive
27	CG7333	1	17204		4592		inactive
28	Keap1	1	3942	9337	1024	1993	inactive
29	Qsox2	1	3242	4502	1080	1939	inactive
30	CG32645	1	25289		12649		inactive
31	CG32645	2	17548		9057		inactive
32	e	1	2364	5385	963	2050	inactive
33	Cep97	1	16360		4825		inactive
34	CG3246	1	3098	4338	721	1723	inactive
35	CG14265	1	23739		23352		inactive
36	CG5421	1	3113	7202	1256	3080	inactive
37	CG13901	1	4730		2074		inactive
38	net	1	3277	8284	1388	3442	inactive
39	fus	1	17441		12800		inactive
40	fus	2	10272		4032		inactive
41	Nepl16	1	17547		13749		inactive
42	CG6023	1	1384	4269	823	2069	inactive
43	CAH7	1	13557		3917		inactive
44	Cdc27	1	5585		1771		inactive
45	Cyp12d1-d + Cyp12d1-p	1	4.50e5	4.58e5	2.78e5	1.93e5	inactive
46	Muc26B	1	2452	6576	829	2592	inactive
47	CG31915	1	1673	4025	714	1009	inactive
48	CG2790	1	12736		3856		inactive
49	CG15172	1	2496	6663	785	3012	inactive
50	CG12374	1	7608		2300		inactive
51	nmdyn-D7	1	13241		3458		inactive
52	CG1142	1	22540		5661		inactive
53	kst	1	5869		2345		inactive
54	CG10431	1	1835	7366	707	2852	inactive
55	Cog3	1	10681		3739		inactive
56	frtz	1	2119	8044	774	2371	inactive

The list goes on (12 carried over from the part before).
no.	predicted target	reagent	firefly reporter light, replicate 1	firefly reporter light, replicate 2	Renilla control light, replicate 1	Renilla control light, replicate 2	Outcome
45	Cyp12d1-d + Cyp12d1-p	1	4.50e5	4.58e5	2.78e5	1.93e5	inactive
46	Muc26B	1	2452	6576	829	2592	inactive
47	CG31915	1	1673	4025	714	1009	inactive
48	CG2790	1	12736		3856		inactive
49	CG15172	1	2496	6663	785	3012	inactive
50	CG12374	1	7608		2300		inactive
51	nmdyn-D7	1	13241		3458		inactive
52	CG1142	1	22540		5661		inactive
53	kst	1	5869		2345		inactive
54	CG10431	1	1835	7366	707	2852	inactive
55	Cog3	1	10681		3739		inactive
56	frtz	1	2119	8044	774	2371	inactive
57	ND-24L	1	8183		3306		inactive
58	Prp40	1	7509		5344		inactive
59	wuho	1	15653		8368		inactive
60	Gr98a	1	1891		624		inactive
61	TER94	1	8213		2001		inactive
62	eya	1	13106		5527		inactive
63	RAF2	1	8119		2405		inactive
64	RAF2	2	9659		3318		inactive
65	Rift	1	18305		15365		inactive
66	Arfip	1	6663		2056		inactive
67	CG6051	1	2986	4379	941	1459	inactive
68	CG4452	1	6636		2640		inactive
69	l(3)72Dn	1	4452		2059		inactive
70	zip	1	4501	7001	1128	3691	inactive
71	zip	2	5.42e5	4.41e5	1.47e5	1.04e5	inactive
72	CG13907	1	18040		4732		inactive
73	eIF1	1	7041		2645		inactive
74	Taf10b	1	3005	6448	945	1686	inactive
75	CG31688 + CG31687	1	2784	9325	519	2027	inactive
76	Sr-CIII	1	5.00e5	5.58e5	2.27e5	2.20e5	inactive
77	Lamtor3	1	3288	7856	1291	3371	inactive
78	Swip-1	1	12049		1533		inactive
79	Swip-1	2	2685	11298	738	3850	inactive
80	CG11905	1	5509		2989		inactive
81	CG43689	1	33165		10435		inactive
82	CG43689	2	15588		2610		inactive
83	CG43689	3	6.22e5	5.90e5	2.07e5	23912	inactive
84	azot	1	2928	4741	819	1884	inactive
85	l(2)05287	1	11266		4548		inactive
86	l(2)05287	2	2379	5571	817	2576	inactive
87	rdgA	1	16043		9035		inactive
88	rdgA	2	23680		12464		inactive
89	rdgA	3	2394	8812	994	3111	inactive
90	Cpr72Eb	1	7149		3062		inactive
91	MFS12	1	4136		1876		inactive
92	Acph-1	1	9732		3316		inactive
93	CG42471	1	20541		10307		inactive
